We go through three molecules from paper PMC7794343, “Structures of human dual oxidase 1 complex in low-calcium and high-calcium states” (Nature Communications, 2021).

For assay [1], the target named is hDUOX1 CBS2 mutant (D109A + D174A) (human) (UniProt Q9NRD9). In words: SEC; fluorescence size-exclusion chromatography (FSEC) of GFP-tagged hDUOX1 co-expressed with hDUOXA1; membrane solubilised in TBS + 1% digitonin, 1 h, 4 °C.
Assay [2] addresses hDUOX1 CBS1 mutant (D397A + T332A) (human) (UniProt Q9NRD9). The assay is described as above.
Assay [3] deals with human dual oxidase 1 (hDUOX1), matured protein 20-1551 with N-terminal GFP tag (human) (UniProt Q9NRD9). Described as above.
Assay [4] has the same target. In words: cryo-EM structure; hDUOX1-hDUOXA1 complex in peptidisc (NSPr); 2.5 mM EGTA (low calcium) or 0.5 mM free calcium (high calcium); 100 uM FAD, 500 uM NADPH, 0.5 mM fluorinated octyl-maltoside; both purified.
The target is the same in assay [5]. In words: SEC; fluorescence size-exclusion chromatography (FSEC) of GFP-tagged hDUOX1 expressed without hDUOXA1. A general note: In gel filtration, larger molecules generally elute earlier.

No constants are given. Whether binding was seen depends on the method and setting. Some binding calls cover weakened binding; strength is not graded here. For some assays here: Sequences can lack the tags named with a protein.

B1: human dual oxidase maturation factor 1 (hDUOXA1) with C-terminal MBP-mScarlet tag (protein, UniProt Q1HG43 1-330)
chain: MATLGHTFPFYAGPKPTFPMDTTLASIIMIFLTALATFIVILPGIRGKTRLFWLLRVVTSLFIGAAILAVNFSSEWSVGQVSTNTSYKAFSSEWISADIGLQVGLGGVNITLTGTPVQQLNETINYNEEFTWRLGENYAEEYAKALEKGLPDPVLYLAEKFTPRSPCGLYRQYRLAGHYTSAMLWVAFLCWLLANVMLSMPVLVYGGYMLLATGIFQLLALLFFSMATSLTSPCPLHLGASVLHTHHGPAFWITLTTGLLCVLLGLAMAVAHRMQPHRLKAFFNQSVDEDPMLEWSPEEGGLLSPRYRSMADSPKSQDIPLSEASSTKAY
For B1, the binding result is listed as “no binding” in assay [1], “no binding” in assay [2] and “binds” in assay [3].

B2: human dual oxidase maturation factor 1 (hDUOXA1), as in the purified peptidisc complex (natural protein)
chain: MATLGHTFPFYAGPKPTFPMDTTLASIIMIFLTALATFIVILPGIRGKTRLFWLLRVVTSLFIGAAILAVNFSSEWSVGQVSTNTSYKAFSSEWISADIGLQVGLGGVNITLTGTPVQQLNETINYNEEFTWRLGENYAEEYAKALEKGLPDPVLYLAEKFTPRSPCGLYRQYRLAGHYTSAMLWVAFLCWLLANVMLSMPVLVYGGYMLLATGIFQLLALLFFSMATSLTSPCPLHLGASVLHTHHGPAFWITLTTGLLCVLLGLAMAVAHRMQPHRLKAFFNQSVDEDPMLEWSPEEGGLLSPRYRSMADSPKSQDIPLSEASSTKAY
modifications: N-linked glycosylation on N109
notes: human DUOXA1; cDNA cloned into a non-tagged BacMam vector or one with C-terminal MBP-mScarlet tag; the non-tagged one is surmised here; source: HEK293F, BacMam baculovirus infection, co-expressed with hDUOX1 from a bicistronic vector; purified with hDUOX1 (Streptactin beads, peptidisc, Superose 6 increase)
On to B2, for which, in assay [4], the binding entry was “binds”.

B3: human dual oxidase 1 (hDUOX1), matured protein 20-1551 with N-terminal GFP tag (enzyme, UniProt Q9NRD9-1 20-1551, looked up)
chain: GAQNPISWEVQRFDGWYNNLMEHRWGSKGSRLQRLVPASYADGVYQPLGEPHLPNPRDLSNTISRGPAGLASLRNRTVLGVFFGYHVLSDLVSVETPGCPAEFLNIRIPPGDPMFDPDQRGDVVLPFQRSRWDPETGRSPSNPRDPANQVTGWLDGSAIYGSSHSWSDALRSFSRGQLASGPDPAFPRDSQNPLLMWAAPDPATGQNGPRGLYAFGAERGNREPFLQALGLLWFRYHNLWAQRLARQHPDWEDEELFQHARKRVIATYQNIAVYEWLPSFLQKTLPEYTGYRPFLDPSISSEFVAASEQFLSTMVPPGVYMRNASCHFQGVINRNSSVSRALRVCNSYWSREHPSLQSAEDVDALLLGMASQIAEREDHVLVEDVRDFWPGPLKFSRTDHLASCLQRGRDLGLPSYTKARAALGLSPITRWQDINPALSRSNDTVLEATAALYNQDLSWLELLPGGLLESHRDPGPLFSTIVLEQFVRLRDGDRYWFENTRNGLFSKKEIEEIRNTTLQDVLVAVINIDPSALQPNVFVWHKGDPCPQPRQLSTEGLPACAPSVVRDYFEGSGFGFGVTIGTLCCFPLVSLLSAWIVARLRMRNFKRLQGQDRQSIVSEKLVGGMEALEWQGHKEPCRPVLVYLQPGQIRVVDGRLTVLRTIQLQPPQKVNFVLSSNRGRRTLLLKIPKEYDLVLLFNLEEERQALVENLRGALKESGLSIQEWELREQELMRAAVTREQRRHLLETFFRHLFSQVLDINQADAGTLPLDSSQKVREALTCELSRAEFAESLGLKPQDMFVESMFSLADKDGNGYLSFREFLDILVVFMKGSPEEKSRLMFRMYDFDGNGLISKDEFIRMLRSFIEISNNCLSKAQLAEVVESMFRESGFQDKEELTWEDFHFMLRDHNSELRFTQLCVKGVEVPEVIKDLCRRASYISQDMICPSPRVSARCSRSDIETELTPQRLQCPMDTDPPQEIRRRFGKKVTSFQPLLFTEAHREKFQRSCLHQTVQQFKRFIENYRRHIGCVAVFYAIAGGLFLERAYYYAFAAHHTGITDTTRVGIILSRGTAASISFMFSYILLTMCRNLITFLRETFLNRYVPFDAAVDFHRLIASTAIVLTVLHSVGHVVNVYLFSISPLSVLSCLFPGLFHDDGSEFPQKYYWWFFQTVPGLTGVVLLLILAIMYVFASHHFRRRSFRGFWLTHHLYILLYVLLIIHGSFALIQLPRFHIFFLVPAIIYGGDKLVSLSRKKVEISVVKAELLPSGVTHLRFQRPQGFEYKSGQWVRIACLALGTTEYHPFTLTSAPHEDTLSLHIRAAGPWTTRLREIYSAPTGDRCARYPKLYLDGPFGEGHQEWHKFEVSVLVGGGIGVTPFASILKDLVFKSSVSCQVFCKKIYFIWVTRTQRQFEWLADIIREVEENDHQDLVSVHIYITQLAEKFDLRTTMLYICERHFQKVLNRSLFTGLRSITHFGRPPFEPFFNSLQEVHPQVRKIGVFSCGPPGMTKNVEKACQLINRQDRTHFSHHYENF
modifications: N-linked glycosylation
notes: human DUOX1, matured protein residues 20-1551; Secretion guided by a rat FSHbeta signal peptide before the GFP tag; GFP-tagged protein is 219 kDa; also called GFP-tagged hDUOX1; WT hDOUX1; source: HEK293F, BacMam baculovirus infection; digitonin-solubilised membrane for FSEC; purified with hDUOXA1 (Streptactin beads, peptidisc with NSPr, Superose 6 increase) for cryo-EM; not shown: GFP, …
For the molecule B3, the binding result in assay [5] was “no binding (condition: expressed without hDUOXA1)”.
